Paper PMC5404917
Residue numbers refer to the chain shown, from its start. These are yes or no findings as the source states them, for the method shown. In cells and extracts the contact can be indirect. Some results given as binding are weak or reduced against the parent protein; the word gives no strength. For part of these data: Where a sequence is shown, tags or fusion partners need not be part of it.

Amino acid sequences for entries named in this document (tags omitted).
UniProt P31749: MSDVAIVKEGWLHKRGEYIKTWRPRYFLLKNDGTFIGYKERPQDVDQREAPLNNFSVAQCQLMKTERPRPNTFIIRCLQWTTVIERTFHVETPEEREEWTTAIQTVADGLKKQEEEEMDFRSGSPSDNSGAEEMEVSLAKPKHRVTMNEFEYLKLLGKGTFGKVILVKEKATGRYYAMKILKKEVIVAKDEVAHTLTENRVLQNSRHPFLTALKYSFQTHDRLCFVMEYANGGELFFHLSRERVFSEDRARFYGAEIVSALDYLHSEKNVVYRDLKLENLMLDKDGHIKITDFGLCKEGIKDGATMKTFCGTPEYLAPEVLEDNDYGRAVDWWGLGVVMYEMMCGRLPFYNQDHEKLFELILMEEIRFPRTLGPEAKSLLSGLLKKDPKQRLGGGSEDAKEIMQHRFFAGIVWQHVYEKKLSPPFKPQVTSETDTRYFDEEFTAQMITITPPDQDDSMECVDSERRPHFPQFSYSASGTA

Assays:
[1] = molecular target: T1, GST-WT-SCP1 (UniProt Q9GZU7); assay: pull-down; purified GST-WT-SCP1 incubated with cell lysates overexpressing AKT; western blotting; only the target purified
T1 sequence: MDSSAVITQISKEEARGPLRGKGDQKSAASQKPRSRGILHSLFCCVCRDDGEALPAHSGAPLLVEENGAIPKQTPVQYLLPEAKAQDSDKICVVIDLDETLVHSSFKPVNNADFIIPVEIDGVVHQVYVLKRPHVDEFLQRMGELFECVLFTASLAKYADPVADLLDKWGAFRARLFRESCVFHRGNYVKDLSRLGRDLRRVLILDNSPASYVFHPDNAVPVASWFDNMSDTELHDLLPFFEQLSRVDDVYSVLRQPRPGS

[2] = molecular target: T2, DN-SCP1 (catalytically inactive SCP1, Asp96 to Glu), overexpressed (UniProt Q9GZU7); assay: co-IP; SCP1 or DN-SCP1 expressed with WT AKT1 or Myr-AKT in cells (Figure 5I); lysis in RIPA buffer, protein A and G beads, 4°C
T2 sequence: T1 sequence with D96E

[3] = molecular target: T3, SCP1, wild type, overexpressed (tag not stated for these experiments) (UniProt Q9GZU7); assay: as above
T3 sequence (chain, palmitoylated in HEK293T cells (ABE assay); Cys44 and Cys45 the major sites): T1 sequence

Measured: binding

AKT1, wild type, overexpressed (from UniProt P31749 1-480) (enzyme)
binds: all assays above
